Measured data: PubChem BioAssay AID504764 (Drosophila RNAi Screening Center, 2011)
In all, the deposit lists about 22,000 reagents; below is a random part of those that have a named target and a result. Over the whole deposit, 403 (1.9%) were called active. 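Unnormalised raw counts per well; ratio z-scores behind the hit calls and whether each hit raises or lowers signal are not deposited.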 Unmarked entries are inactive. The numbers tell different reagents against one gene apart. A plus sign joins genes that one reagent is predicted to hit. Not stated in the record: the amount of reagent.

- Screen: 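Knock-downs that raise or lower a Notch target reporter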 (primary screen)
- System: Drosophila Kc167 cells
- Knock-down reagent: long dsRNA against Drosophila genes
- Timing: about 5 days (4 days dsRNA, then 24 h after transfection)
- Challenge: transfection of constitutively active membrane-tethered Notch lacking the extracellular domain, read 24 h later
- Measurement: 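Light from a Notch-responsive E(spl)m3 luciferase reporter under active Notch, with control-promoter and no-Notch reporter wells to normalise; raw counts from paired wells a and b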
- Scale: induced reporter light, run 1, well a and induced reporter light, run 1, well b: higher = more light from the Notch target reporter with active Notch; control promoter light, run 1, well a and control promoter light, run 1, well b: higher = more light from the viral control promoter (cell number, transfection, viability); uninduced reporter light, run 1, well a: higher = more light from the Notch target reporter without active Notch
- Active means: 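Hit if the duplicate-averaged log2 ratio of induced to control-promoter light gives a plate-wise z beyond ±2, or induced to uninduced beyond ±1.8; weak-control or discordant-duplicate wells dropped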
- Meaning of the calls: active = modifier hit (raised or lowered Notch signal); inactive = not a hit

target gene	dsRNA no.	induced reporter light, run 1, well a	induced reporter light, run 1, well b	control promoter light, run 1, well a	control promoter light, run 1, well b	uninduced reporter light, run 1, well a
GluProRS (Glutamyl-prolyl-tRNA synthetase)	1	1.30e5	1.34e5	1.81e5	2.16e5	9770
CG8299	1	62220	79365	1.18e5	94610	6532
CG15865	1	66320	54780	66630	49510	8015
CG3457	1	2.19e5	2.28e5	3.31e5	3.38e5	15415
CG8778	1	90380	81010	1.26e5	1.08e5	8125
Lcp9 (Larval cuticle protein 9)	1	1.79e5	1.90e5	1.97e5	1.77e5	10320
CG10339	1	1.18e5	1.16e5	1.46e5	1.26e5	9215
tilB (touch insensitive larva B)	1	84025	93820	97210	1.42e5	9665
CG11635 + spaw	1	1.85e5	1.39e5	2.26e5	1.95e5	15205
CG32276	1	2.38e5	2.31e5	2.16e5	1.85e5	18910
Mal-A6 (Maltase A6)	1	2.00e5	1.56e5	1.84e5	2.09e5	14030
Mdh2 (retired record)	1	2.05e5	1.91e5	2.32e5	2.09e5	12082
Mct1 (Monocarboxylate transporter 1)	1	1.13e5	1.09e5	1.77e5	2.00e5	10250
CG3868	1	1.27e5	1.02e5	91265	78795	9325
CG11929	1	1.43e5 (active)	1.10e5	2.11e5	1.92e5	8878
CG12290	1	1.52e5	1.99e5	1.93e5	2.06e5	12855
CG4598	1	1.49e5	1.70e5	81780	97200	18630
CG30058 + CG34235 + CG34312	1	1.53e5	1.73e5	2.09e5	2.10e5	18090
CG18294	1	1.10e5	1.22e5	1.17e5	1.06e5	9850
CG10934	1	87915	94155	1.88e5	1.70e5	8605
CG6843	1	1.20e5	88680	1.68e5	1.16e5	7550
CG2260	1	2.63e5	2.04e5	3.38e5	2.84e5	14038
CG10710	1	1.49e5	1.06e5	1.94e5	1.13e5	5700
CG9068	1	79505	56990	41120	58505	5285
Lint-1 (l(3)mbt interacting protein 1)	1	1.11e5	98960	90240	1.03e5	10440
CG30183	1	1.64e5	1.41e5	1.64e5	1.71e5	12450
CG30183	2	1.72e5	1.53e5	1.52e5	1.32e5	11845
CG14471 (retired record)	1	1.73e5	1.45e5	1.48e5	1.56e5	12020
CG14000 + bchs	1	93565	97915	83750	79865	7285
insb (insensible)	1	91560	94460	67935	85055	8780
eIF4H1 (eukaryotic translation initiation factor 4H1)	1	22505	25500	29775	25720	3365
CG9231	1	1.18e5	1.28e5	85830	1.07e5	9885
CG11168	1	2.03e5	1.80e5	2.06e5	2.34e5	14290
Taf10b + Taf10	1	90545	75710	41080	33250	6425
elB (elbow B)	1	91870	65135	69640	59805	7185
elB (elbow B)	2	1.39e5	1.37e5	1.37e5	1.08e5	10820
CG13297	1	1.46e5	1.66e5	1.58e5	1.39e5	5465
fest (wurstfest)	1	67715	75755	66235	57935	6900
CG4730	1	1.97e5	1.71e5	2.36e5	1.75e5	12835

Targets listed so far whose target name begins with L or l (2):
target gene	dsRNA no.	induced reporter light, run 1, well a	induced reporter light, run 1, well b	control promoter light, run 1, well a	control promoter light, run 1, well b	uninduced reporter light, run 1, well a
Lcp9 (Larval cuticle protein 9)	1	1.79e5	1.90e5	1.97e5	1.77e5	10320
Lint-1 (l(3)mbt interacting protein 1)	1	1.11e5	98960	90240	1.03e5	10440

More results follow.
target gene	dsRNA no.	induced reporter light, run 1, well a	induced reporter light, run 1, well b	control promoter light, run 1, well a	control promoter light, run 1, well b	uninduced reporter light, run 1, well a
CG11192	1	47155	32975	40660	44120	5720
mRpS16 (mitochondrial ribosomal protein S16)	1	80625	88445	1.06e5	1.00e5	9615
CG6023	1	90485	89045	83380	55870	7628
CG34155	1	65365	96885	1.60e5	1.28e5	8705
CG10600	1	1.92e5	2.24e5	1.80e5	2.03e5	13775
Aven (Apoptosis and caspase activation inhibitor)	1	1.08e5	84915	1.27e5	1.17e5	7085
eIF4B (eukaryotic translation initiation factor 4B)	1	92850	73130	88505	1.21e5	10332
CG15414	1	1.52e5	1.28e5	1.41e5	1.45e5	9265
a5 (antennal protein 5)	1	94210	88660	1.05e5	77840	7655
Grx3 (Glutaredoxin 3)	1	1.90e5	1.98e5	1.31e5	1.52e5	14930
CG18823	1	1.15e5	98220	1.69e5	1.50e5	7625
Gr63a (Gustatory receptor 63a)	1	86625	1.46e5	1.89e5	1.42e5	7670
Afg3l2 (AFG3 like matrix AAA peptidase subunit 2)	1	1.18e5	83150	87975	80900	8720
vir (virilizer)	1	2.17e5	1.95e5	1.50e5	1.56e5	17345
CG7054	1	1.51e5	1.49e5	2.37e5	2.53e5	12765
aln (allnighter)	1	1.40e5	1.46e5	2.19e5	2.41e5	7020
CG11630	1	68400	58570	1.04e5	75220	4210
Mccc1 (Methylcrotonoyl-CoA carboxylase 1)	1	2.64e5	1.93e5	2.66e5	2.53e5	12630
CG1227	1	1.31e5	1.61e5	1.17e5	89705	11935
CG11248	1	1.00e5	1.22e5	63605	91400	10000
eys (eyes shut)	1	56880	53890	56195	60350	6930
eys (eyes shut)	2	1.09e5	1.25e5	98120	59295	9480
eys (eyes shut)	3	1.19e5	87150	98465	52920	8170
eys (eyes shut)	4	1.29e5	1.63e5	1.81e5	1.70e5	12920
Lcp1Psi (Larval cuticle protein 1 pseudogene)	1	98905	1.26e5	1.58e5	1.56e5	5590
